Reference: publication doi:10.1101/2024.02.20.581153
Results are given in words; binding and its absence hold for the method and conditions named. Some binding calls cover weakened binding; strength is not graded here.

Biological target: T1, MICU1 (mouse brain) (mouse (endogenous in brain)) (UniProt Q8VCX5)
T1 sequence: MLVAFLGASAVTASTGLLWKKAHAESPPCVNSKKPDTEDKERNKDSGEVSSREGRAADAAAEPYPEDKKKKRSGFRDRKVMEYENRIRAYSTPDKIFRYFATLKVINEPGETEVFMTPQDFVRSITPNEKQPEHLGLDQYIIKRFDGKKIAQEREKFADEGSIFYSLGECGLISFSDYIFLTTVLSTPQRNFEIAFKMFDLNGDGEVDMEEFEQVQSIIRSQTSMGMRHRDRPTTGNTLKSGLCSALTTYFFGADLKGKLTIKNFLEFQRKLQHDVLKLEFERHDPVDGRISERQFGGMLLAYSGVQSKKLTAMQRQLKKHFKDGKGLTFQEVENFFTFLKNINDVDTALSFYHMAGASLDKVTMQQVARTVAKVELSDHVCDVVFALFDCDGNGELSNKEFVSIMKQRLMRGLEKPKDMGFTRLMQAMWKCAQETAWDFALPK
Test: non-reducing SDS-PAGE and immunoblot

B1: MICU3 (mouse brain) (protein, UniProt Q9CTY5 7-523)
chain: FLWPPPRLSPALAPQQPFLSPWGRPAGTAPGMSGRPFSCREEDEGAVAEAAWRRRRWGELSIAAAAGGGLVGLVCYQLYGDPRADPSELAAPELEDPPRGRGLLPIPVAAAKETVATGRAITEDLDLYATSRERRFRLFASIECEGQLFMTPYDFILAVTTDEPKFAKTWKSLSKQELSQMLSETPPVWKGSSKLFRNLKERGVISYTEYLFLLCILTKPHAGFRIAFNMFDTDGNEMVDKKEFLVLQEIFRKKNEKRETKGDEEKRAMLRLQLYGYHSPTNSVLKTDAGELVSRSYWDTLRRSTSQALFSDLAERADDITSLVADTTLLVHFFGKKGKAELNFEDFYRFMDNLQTEVLEIEFLSYSNGMNTISEEDFAHILLRYTNVENTSVFLENVRYSISEEKGITFDEFRSFFQFLNNLEDFAIALNMYNFASRSIGQDEFKRAVYVATGLKLSPHLVNTVFKIFDVDKDDQLSYKEFIGIMKDRLHRGFRGYKTVQKYPTFKSCLKKELHSR
binding: binds
